Source: paper PMC4117460
Where two headings read alike, the source gives them in different places. Results are given in words; binding and its absence hold for the method and conditions named. Binding seen in cells or lysates may run through a third protein. Some results given as binding are weak or reduced against the parent protein; the word gives no strength. For some assays here: Tags and fused reporters may be left off the sequences shown. One block for each molecule: values may come before it.

Protein sequences, listed by entry. Tags and fused reporters are not part of them.
UniProt Q3TKT4: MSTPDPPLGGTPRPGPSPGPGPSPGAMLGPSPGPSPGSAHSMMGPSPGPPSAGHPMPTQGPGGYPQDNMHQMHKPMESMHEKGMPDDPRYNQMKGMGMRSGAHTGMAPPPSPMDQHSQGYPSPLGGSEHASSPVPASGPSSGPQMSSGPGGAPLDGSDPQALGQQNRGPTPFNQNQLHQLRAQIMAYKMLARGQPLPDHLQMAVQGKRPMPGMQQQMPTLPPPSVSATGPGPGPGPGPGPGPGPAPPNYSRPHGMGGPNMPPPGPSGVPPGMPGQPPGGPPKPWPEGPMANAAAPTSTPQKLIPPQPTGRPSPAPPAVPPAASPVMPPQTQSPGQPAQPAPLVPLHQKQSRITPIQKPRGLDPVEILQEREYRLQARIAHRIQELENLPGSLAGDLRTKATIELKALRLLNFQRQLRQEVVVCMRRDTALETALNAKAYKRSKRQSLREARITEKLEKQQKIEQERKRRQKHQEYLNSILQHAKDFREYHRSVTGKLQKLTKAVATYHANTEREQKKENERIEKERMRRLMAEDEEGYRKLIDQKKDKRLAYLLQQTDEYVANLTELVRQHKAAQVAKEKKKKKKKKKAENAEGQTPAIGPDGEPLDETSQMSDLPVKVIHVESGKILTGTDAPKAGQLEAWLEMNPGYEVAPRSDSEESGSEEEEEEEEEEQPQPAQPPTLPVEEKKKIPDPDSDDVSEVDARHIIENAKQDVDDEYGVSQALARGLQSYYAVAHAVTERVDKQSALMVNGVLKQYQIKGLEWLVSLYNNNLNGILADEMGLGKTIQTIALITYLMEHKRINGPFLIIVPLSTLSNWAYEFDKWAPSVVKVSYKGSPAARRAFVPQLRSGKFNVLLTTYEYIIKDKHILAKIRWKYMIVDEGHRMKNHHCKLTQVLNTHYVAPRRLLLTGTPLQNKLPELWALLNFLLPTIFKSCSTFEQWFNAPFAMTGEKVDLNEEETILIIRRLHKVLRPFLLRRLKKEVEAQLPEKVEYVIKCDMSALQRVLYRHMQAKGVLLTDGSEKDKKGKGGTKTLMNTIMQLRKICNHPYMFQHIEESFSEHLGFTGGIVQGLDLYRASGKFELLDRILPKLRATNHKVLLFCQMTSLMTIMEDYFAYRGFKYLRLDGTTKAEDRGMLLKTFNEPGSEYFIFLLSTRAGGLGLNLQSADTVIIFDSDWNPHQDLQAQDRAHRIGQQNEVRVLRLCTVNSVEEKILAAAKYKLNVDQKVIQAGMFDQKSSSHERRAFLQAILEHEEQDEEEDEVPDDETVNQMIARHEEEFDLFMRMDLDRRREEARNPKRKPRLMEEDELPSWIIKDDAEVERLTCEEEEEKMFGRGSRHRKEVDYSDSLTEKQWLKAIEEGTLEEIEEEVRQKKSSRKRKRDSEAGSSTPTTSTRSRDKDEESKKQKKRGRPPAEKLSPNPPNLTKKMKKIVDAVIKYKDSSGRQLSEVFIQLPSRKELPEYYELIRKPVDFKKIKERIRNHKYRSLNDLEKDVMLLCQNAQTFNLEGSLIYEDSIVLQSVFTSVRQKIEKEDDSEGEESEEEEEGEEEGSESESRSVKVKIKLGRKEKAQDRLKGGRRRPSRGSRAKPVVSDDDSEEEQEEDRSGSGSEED

How the values were obtained:
[1] = biological target: T1, FLAG-tagged Nkx2.1 (UniProt P50220); assay: co-IP; coimmunoprecipitation and immunoblot of 293T cells expressing HA-tagged and FLAG-tagged proteins; which tag was precipitated is not told
T1 sequence: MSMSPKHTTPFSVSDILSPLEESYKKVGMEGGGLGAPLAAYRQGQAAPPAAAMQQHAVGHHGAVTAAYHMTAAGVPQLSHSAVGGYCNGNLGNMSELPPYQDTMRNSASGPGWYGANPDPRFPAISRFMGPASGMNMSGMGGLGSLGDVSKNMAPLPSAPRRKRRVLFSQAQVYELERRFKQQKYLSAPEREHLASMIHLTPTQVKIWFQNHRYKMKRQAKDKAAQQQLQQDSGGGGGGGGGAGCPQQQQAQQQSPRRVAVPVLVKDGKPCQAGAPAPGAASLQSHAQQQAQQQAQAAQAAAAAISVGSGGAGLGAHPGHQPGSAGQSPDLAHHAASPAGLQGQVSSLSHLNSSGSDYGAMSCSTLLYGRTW

[2] = biological target: FLAG-tagged Brg1 (UniProt Q3TKT4); assay: as above
[3] = biological target: T2, endogenous Nkx2.1 (mouse (endogenous in E17.5 lung tissue)) (UniProt P50220); assay: co-IP; CoIP of endogenous Nkx2.1, Brg1 and Jmjd3 in WT and Jmjd3-deficient mouse lung tissues at E17.5
T2 sequence: T1 sequence

[4] = biological target: T1, FLAG-tagged Nkx2.1; assay: co-IP; coimmunoprecipitation and immunoblot of 293T cells expressing HA-tagged and FLAG-tagged proteins; which tag was precipitated is not told; remark: listed apart in the source

binding [1]: binds
binding [2]: binds
Molecule: HA-tagged Jmjd3 (Jumonji domain containing-3) (from UniProt O15054-1 1-1682) (enzyme)

binding [3]: binds
Molecule: endogenous Brg1 (from UniProt Q3TKT4 1-1613) (enzyme)

The next lines start with the molecule.

Molecule: HA-tagged Jmjd3C (1201-1682 aa) (from UniProt O15054-1 1201-1682) (domain or fragment)
binding [2]: binds

B1: HA-tagged Jmjd3N (1-450 aa) (domain or fragment, UniProt O15054-1 1-450)
chain: MHRAVDPPGARAAREAFALGGLSCAGAWSSCPPHPPPRSAWLPGGRCSASIGQPPLPAPLPPSHGSSSGHPSKPYYAPGAPTPRPLHGKLESLHGCVQALLREPAQPGLWEQLGQLYESEHDSEEATRCYHSALRYGGSFAELGPRIGRLQQAQLWNFHTGSCQHRAKVLPPLEQVWNLLHLEHKRNYGAKRGGPPVKRAAEPPVVQPVPPAALSGPSGEEGLSPGGKRRRGCNSEQTGLPPGLPLPPPPLPPPPPPPPPPPPPLPGLATSPPFQLTKPGLWSTLHGDAWGPERKGSAPPERQEQRHSLPHPYPYPAPAYTAHPPGHRLVPAAPPGPGPRPPGAESHGCLPATRPPGSDLRESRVQRSRMDSSVSPAATTACVPYAPSRPPGLPGTTTSSSSSSSSNTGLRGVEPNPGIPGADHYQTPALEVSHHGRLGPSAHSSRKPFL
binding [4]: binds
